These are yes or no findings as the source states them, for the method shown. Binding seen in cells or lysates may run through a third protein. Some entries that bind do so weakly or less than the wild type. Where a sequence is shown, tags or fusion partners need not be part of it.
Experiments:
[1] = biological target: GST-FMRP-1-200 F32L (human) (UniProt Q06787); assay: pull-down; 20 ug GST-tagged protein pre-coupled to glutathione Sepharose 4B, lysate of HEK293T cells (endogenous proteins or Flag-tagged proteins 36 h after transfection; 100 mM NaCl, 20 mM Tris-HCl pH 7.4, 5 mM MgCl2, 0.5% Igepal CA-630), 4 h at 4 C, with or without RNase A 0.5 mg/ml; immunoblotting; only the target purified
[2] = biological target: GST-FMRP-1-200 Y96L (human) (UniProt Q06787); assay: as above

- binding [1]: binds
- binding [2]: binds
B1: Flag-BAIAP2L1 (protein, UniProt Q9UHR4 1-511)
chain: MSRGPEEVNRLTESTYRNVMEQFNPGLRNLINLGKNYEKAVNAMILAGKAYYDGVAKIGEIATGSPVSTELGHVLIEISSTHKKLNESLDENFKKFHKEIIHELEKKIELDVKYMNATLKRYQTEHKNKLESLEKSQAELKKIRRKSQGSRNALKYEHKEIEYVETVTSRQSEIQKFIADGCKEALLEEKRRFCFLVDKHCGFANHIHYYHLQSAELLNSKLPRWQETCVDAIKVPEKIMNMIEEIKTPASTPVSGTPQASPMIERSNVVRKDYDTLSKCSPKMPPAPSGRAYTSPLIDMFNNPATAAPNSQRVNNSTGTSEDPSLQRSVSVATGLNMMKKQKVKTIFPHTAGSNKTLLSFAQGDVITLLIPEEKDGWLYGEHDVSKARGWFPSSYTKLLEENETEAVTVPTPSPTPVRSISTVNLSENSSVVIPPPDYLECLSMGAAADRRADSARTTSTFKAPASKPETAAPNDANGTAKPPFLSGENPFATVKLRPTVTNDRSAPIIR

— article PMC5430443
